Results taken from PMC6588935.
No constants are given. Whether binding was seen depends on the method and setting. In cells and extracts the contact can be indirect. Some results given as binding are weak or reduced against the parent protein; the word gives no strength.

Amino acid sequences for entries named in this document (tags omitted).
UniProt Q86U44: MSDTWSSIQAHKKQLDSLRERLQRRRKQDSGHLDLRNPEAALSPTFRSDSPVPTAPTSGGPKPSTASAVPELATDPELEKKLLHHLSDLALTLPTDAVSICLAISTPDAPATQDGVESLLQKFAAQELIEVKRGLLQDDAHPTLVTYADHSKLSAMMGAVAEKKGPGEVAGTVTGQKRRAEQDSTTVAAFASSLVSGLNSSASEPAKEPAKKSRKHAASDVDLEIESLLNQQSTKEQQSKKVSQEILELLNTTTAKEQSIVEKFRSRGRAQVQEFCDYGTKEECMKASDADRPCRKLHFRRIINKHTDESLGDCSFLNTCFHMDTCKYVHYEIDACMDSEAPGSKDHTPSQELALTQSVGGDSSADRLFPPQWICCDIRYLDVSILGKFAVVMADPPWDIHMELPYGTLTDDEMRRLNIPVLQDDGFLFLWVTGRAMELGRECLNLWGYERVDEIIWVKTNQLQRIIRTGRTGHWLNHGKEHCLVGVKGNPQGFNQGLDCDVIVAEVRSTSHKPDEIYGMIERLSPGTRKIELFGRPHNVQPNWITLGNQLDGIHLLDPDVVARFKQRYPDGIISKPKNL

Molecular target: Methyltransferase-like 3 (human (endogenous in T24)) (UniProt Q86U44)
Assay: co-IP; T24 cells, Pierce Co-Immunoprecipitation Kit; IP with anti-METTL3 antibody overnight at 4 °C, IgG as control; immunoprecipitated complex treated with RNase A or RNase inhibitor 5 min at 37 °C; western blot with anti-DGCR8; cells UV-cross-linked before the IP (legend of Fig. 4b)

- binding: binds
B1: microprocessor protein DGCR8 (DGCR8 microprocessor complex subunit) (protein, UniProt Q8WYQ5 1-773)
chain: METDESPSPLPCGPAGEAVMESRARPFQALPREQSPPPPLQTSSGAEVMDVGSGGDGQSELPAEDPFNFYGASLLSKGSFSKGRLLIDPNCSGHSPRTARHAPAVRKFSPDLKLLKDVKISVSFTESCRSKDRKVLYTGAERDVRAECGLLLSPVSGDVHACPFGGSVGDGVGIGGESADKKDEENELDQEKRVEYAVLDELEDFTDNLELDEEGAGGFTAKAIVQRDRVDEEALNFPYEDDFDNDVDALLEEGLCAPKKRRTEEKYGGDSDHPSDGETSVQPMMTKIKTVLKSRGRPPTEPLPDGWIMTFHNSGVPVYLHRESRVVTWSRPYFLGTGSIRKHDPPLSSIPCLHYKKMKDNEEREQSSDLTPSGDVSPVKPLSRSAELEFPLDEPDSMGADPGPPDEKDPLGAEAAPGALGQVKAKVEVCKDESVDLEEFRSYLEKRFDFEQVTVKKFRTWAERRQFNREMKRKQAESERPILPANQKLITLSVQDAPTKKEFVINPNGKSEVCILHEYMQRVLKVRPVYNFFECENPSEPFGASVTIDGVTYGSGTASSKKLAKNKAARATLEILIPDFVKQTSEEKPKDSEELEYFNHISIEDSRVYELTSKAGLLSPYQILHECLKRNHGMGDTSIKFEVVPGKNQKSEYVMACGKHTVRGWCKNKRVGKQLASQKILQLLHPHVKNWGSLLRMYGRESSKMVKQETSDKSVIELQQYAKKNKPNLHILSKLQEEMKRLAEEREETRKKPKMSIVASAQPGGEPLCTVDV
